Measurements from publication PMC4884786.
No constants are given. Whether binding was seen depends on the method and setting. In cells and extracts the contact can be indirect. These calls come from enrichment with a bait or labelling near it, and not all partners need be listed.

Chains of the proteins cited; added tags and fusions are not shown. Residues count along the entry.
UniProt Q9UF56: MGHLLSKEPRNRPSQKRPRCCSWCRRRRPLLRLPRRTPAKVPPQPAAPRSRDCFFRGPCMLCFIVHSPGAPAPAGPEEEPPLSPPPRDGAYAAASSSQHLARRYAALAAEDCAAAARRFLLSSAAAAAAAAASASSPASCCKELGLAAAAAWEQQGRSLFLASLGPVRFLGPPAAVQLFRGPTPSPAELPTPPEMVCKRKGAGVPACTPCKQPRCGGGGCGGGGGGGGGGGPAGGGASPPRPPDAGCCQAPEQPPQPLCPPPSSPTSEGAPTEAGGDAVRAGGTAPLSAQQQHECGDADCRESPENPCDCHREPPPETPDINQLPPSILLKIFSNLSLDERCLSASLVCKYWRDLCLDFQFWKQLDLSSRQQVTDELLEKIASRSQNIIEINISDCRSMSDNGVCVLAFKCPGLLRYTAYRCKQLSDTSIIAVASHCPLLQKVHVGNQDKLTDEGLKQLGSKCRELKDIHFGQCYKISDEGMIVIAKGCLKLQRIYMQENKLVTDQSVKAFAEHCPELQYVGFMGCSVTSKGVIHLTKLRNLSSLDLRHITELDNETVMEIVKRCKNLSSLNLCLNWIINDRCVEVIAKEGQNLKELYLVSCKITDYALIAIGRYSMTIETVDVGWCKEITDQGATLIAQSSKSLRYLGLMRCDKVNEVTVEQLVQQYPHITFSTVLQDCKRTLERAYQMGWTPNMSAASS
UniProt Q9BY89: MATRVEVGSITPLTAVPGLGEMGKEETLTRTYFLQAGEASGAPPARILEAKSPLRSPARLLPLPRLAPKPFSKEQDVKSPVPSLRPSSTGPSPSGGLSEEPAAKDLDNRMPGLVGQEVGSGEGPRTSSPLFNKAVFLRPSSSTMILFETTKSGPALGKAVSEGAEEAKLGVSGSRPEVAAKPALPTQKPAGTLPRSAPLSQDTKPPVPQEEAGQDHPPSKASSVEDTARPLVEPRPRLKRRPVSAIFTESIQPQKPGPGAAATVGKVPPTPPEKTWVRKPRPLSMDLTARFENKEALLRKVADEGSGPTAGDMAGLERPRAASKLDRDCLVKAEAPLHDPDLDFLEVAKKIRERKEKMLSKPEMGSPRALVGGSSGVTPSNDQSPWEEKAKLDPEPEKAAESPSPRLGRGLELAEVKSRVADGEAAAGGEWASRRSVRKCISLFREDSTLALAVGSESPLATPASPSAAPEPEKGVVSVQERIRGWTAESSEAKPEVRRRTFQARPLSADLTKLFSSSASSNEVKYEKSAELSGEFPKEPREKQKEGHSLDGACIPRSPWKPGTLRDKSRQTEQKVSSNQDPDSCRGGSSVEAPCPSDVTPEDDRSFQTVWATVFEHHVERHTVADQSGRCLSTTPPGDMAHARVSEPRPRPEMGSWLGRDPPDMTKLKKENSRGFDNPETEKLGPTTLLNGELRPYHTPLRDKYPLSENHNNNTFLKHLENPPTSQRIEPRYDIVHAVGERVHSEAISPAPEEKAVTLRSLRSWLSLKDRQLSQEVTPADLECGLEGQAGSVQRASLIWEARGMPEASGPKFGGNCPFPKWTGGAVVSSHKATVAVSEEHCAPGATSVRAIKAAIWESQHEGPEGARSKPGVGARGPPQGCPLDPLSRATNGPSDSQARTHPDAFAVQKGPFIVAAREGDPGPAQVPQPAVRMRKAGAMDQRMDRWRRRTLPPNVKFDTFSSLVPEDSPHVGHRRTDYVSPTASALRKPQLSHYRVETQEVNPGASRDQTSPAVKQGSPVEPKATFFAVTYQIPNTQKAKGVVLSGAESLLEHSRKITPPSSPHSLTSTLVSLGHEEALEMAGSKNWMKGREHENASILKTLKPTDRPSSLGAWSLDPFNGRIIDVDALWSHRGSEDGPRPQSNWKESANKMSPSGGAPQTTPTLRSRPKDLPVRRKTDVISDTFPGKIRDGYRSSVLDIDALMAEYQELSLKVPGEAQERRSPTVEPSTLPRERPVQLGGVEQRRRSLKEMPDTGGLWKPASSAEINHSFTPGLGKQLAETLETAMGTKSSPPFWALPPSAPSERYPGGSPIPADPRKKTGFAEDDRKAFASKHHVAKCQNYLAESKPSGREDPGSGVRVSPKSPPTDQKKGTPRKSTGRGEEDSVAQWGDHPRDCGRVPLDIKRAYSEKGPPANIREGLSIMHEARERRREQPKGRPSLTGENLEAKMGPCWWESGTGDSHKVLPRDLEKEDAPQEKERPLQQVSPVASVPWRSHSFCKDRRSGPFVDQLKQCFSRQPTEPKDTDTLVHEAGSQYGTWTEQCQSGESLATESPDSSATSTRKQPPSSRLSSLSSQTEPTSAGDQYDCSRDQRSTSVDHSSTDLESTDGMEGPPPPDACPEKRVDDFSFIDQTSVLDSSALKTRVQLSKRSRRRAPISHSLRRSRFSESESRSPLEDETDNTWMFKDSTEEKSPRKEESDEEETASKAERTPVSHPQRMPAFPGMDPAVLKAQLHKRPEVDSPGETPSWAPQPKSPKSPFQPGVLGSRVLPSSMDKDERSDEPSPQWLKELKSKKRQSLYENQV
UniProt P63208: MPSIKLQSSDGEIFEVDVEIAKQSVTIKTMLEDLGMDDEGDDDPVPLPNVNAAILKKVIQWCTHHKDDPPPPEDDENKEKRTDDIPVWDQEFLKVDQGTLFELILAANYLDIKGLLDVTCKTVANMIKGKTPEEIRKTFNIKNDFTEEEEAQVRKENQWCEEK
UniProt O14641: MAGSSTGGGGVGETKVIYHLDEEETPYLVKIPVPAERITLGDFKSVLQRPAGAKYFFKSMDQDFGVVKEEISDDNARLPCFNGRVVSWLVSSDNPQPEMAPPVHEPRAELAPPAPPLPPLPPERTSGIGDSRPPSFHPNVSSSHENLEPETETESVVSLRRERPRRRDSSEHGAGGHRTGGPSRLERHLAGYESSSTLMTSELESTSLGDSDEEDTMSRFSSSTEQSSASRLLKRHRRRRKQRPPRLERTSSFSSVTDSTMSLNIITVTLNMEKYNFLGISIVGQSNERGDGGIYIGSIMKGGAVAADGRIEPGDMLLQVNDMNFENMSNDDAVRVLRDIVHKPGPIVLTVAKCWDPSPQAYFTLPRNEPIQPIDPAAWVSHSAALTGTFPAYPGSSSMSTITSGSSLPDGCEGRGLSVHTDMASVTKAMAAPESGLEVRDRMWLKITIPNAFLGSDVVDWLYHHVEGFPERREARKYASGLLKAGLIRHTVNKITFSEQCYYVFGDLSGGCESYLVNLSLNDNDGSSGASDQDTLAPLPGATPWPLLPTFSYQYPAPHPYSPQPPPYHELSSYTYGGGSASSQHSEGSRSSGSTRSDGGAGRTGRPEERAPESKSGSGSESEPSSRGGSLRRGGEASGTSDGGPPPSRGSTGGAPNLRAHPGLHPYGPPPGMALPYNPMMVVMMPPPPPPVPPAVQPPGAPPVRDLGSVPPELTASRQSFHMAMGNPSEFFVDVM
UniProt Q04721, residues 26-2471: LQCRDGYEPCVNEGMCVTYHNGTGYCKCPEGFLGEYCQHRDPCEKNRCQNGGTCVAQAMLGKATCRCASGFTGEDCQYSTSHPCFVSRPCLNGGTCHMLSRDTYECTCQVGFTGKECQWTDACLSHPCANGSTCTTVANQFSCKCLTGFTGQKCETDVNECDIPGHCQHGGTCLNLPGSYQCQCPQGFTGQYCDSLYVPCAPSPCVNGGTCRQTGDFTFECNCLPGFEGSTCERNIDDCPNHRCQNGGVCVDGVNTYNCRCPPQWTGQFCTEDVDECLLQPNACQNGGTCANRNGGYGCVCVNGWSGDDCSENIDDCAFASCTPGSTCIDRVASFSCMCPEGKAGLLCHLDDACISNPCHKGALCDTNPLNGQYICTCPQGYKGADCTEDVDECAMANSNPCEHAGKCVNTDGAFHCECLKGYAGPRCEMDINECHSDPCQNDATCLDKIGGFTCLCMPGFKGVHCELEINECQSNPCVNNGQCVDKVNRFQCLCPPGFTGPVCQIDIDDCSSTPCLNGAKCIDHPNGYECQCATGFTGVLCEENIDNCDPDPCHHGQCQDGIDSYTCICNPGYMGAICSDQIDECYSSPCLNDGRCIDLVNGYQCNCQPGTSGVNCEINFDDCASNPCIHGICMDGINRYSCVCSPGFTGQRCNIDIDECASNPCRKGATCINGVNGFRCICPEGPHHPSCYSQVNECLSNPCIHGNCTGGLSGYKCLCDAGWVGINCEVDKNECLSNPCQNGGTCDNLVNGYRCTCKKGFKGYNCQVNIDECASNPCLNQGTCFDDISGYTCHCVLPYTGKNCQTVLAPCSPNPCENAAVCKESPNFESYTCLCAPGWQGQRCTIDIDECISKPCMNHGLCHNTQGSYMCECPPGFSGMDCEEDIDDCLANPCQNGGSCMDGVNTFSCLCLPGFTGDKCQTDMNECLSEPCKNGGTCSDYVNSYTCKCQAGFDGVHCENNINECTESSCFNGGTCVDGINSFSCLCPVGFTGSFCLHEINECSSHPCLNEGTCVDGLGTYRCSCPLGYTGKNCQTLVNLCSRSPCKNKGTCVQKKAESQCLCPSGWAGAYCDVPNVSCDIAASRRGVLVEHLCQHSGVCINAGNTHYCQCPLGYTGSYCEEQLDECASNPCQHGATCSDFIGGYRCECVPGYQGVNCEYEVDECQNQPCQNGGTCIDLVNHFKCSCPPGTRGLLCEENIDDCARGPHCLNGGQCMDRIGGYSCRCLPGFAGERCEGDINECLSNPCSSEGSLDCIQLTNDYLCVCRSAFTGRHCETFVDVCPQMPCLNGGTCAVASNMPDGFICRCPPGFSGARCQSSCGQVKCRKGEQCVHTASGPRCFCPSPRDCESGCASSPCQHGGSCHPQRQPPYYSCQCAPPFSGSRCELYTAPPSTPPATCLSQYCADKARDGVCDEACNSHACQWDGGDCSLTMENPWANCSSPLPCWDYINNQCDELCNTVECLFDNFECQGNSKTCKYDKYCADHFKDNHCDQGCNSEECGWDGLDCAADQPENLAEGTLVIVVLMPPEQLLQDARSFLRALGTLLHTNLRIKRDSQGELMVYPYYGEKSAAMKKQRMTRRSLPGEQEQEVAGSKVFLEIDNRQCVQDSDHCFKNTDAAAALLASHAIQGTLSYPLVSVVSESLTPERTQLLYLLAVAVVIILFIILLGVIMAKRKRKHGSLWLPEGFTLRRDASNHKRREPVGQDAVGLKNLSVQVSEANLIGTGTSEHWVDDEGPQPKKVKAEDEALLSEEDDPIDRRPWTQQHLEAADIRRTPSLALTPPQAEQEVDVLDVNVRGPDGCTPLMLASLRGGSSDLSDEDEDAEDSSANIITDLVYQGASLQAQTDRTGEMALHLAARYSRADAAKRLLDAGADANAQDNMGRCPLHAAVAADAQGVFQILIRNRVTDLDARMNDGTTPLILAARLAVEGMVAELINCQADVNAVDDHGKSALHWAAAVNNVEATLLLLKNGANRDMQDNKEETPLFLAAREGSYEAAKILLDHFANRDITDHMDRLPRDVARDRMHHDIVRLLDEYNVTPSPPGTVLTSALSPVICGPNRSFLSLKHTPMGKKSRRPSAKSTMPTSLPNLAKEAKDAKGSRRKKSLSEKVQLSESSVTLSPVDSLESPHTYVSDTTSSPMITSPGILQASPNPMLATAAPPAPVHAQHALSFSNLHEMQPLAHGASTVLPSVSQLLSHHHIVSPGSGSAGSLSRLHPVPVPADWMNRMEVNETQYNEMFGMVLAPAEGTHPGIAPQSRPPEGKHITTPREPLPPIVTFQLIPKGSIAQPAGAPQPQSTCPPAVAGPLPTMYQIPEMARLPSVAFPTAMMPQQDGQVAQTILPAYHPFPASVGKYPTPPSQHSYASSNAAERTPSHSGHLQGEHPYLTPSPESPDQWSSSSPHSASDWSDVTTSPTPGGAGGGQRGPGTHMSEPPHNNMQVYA

B1: TAB 1 (protein, UniProt O43318 1-606)
chain: MSTASAASSSSSSSAGEMIEAPSQVLNFEEIDYKEIEVEEVVGRGAFGVVCKAKWRAKDVAIKQIESESERKAFIVELRQLSRVNHPNIVKLYGACLNPVCLVMEYAEGGSLYNVLHGAEPLPYYTAAHAMSWCLQCSQGVAYLHSMQPKALIHRDLKPPNLLLVAGGTVLKICDFGTACDIQTHMTNNKGSAAWMAPEVFEGSNYSEKCDVFSWGIILWEVITRRKPFDEIGGPAFRIMWAVHNGTRPPLIKNLPKPIESLMTRCWSKDPSQRPSMEEIVKIMTHLMRYFPGADEPLQYPCQYSDEGQSNSATSTGSFMDIASTNTSNKSDTNMEQVPATNDTIKRLESKLLKNQAKQQSESGRLSLGASRGSSVESLPPTSEGKRMSADMSEIEARIAATTAYSKPKRGHRKTASFGNILDVPEIVISGNGQPRRRSIQDLTVTGTEPGQVSSRSSSPSVRMITTSGPTSEKPTRSHPWTPDDSTDTNGSDNSIPMAYLTLDHQLQPLAPCPNSKESMAVFEQHCKMAQEYMKVQTEIALLLQRKQELVAELDQDEKDQQNTSRLVQEHKKLLDENKSLSTYYQQCKKQLEVIRSQQQKRQGTS
B2: Praja2 (protein, UniProt O43164 1-708)
chain: MSQYTEKEPAAMDQESGKAVWPKPAGGYQTITGRRYGRRHAYVSFKPCMTRHERSLGRAGDDYEVLELDDVPKENSSGSSPLDQVDSSLPSEPIFEKSETEIPTCGSALNQTTESSQSFVAVHHSEEGRDTLGSSTNLHNHSEGEYIPGACSASSVQNGIALVHTDSYDPDGKHGEDNDHLQLSAEVVEGSRYQESLGNTVFELENREAEAYTGLSPPVPSFNCEVRDEFEELDSVPLVKSSAGDTEFVHQNSQEIQRSSQDEMVSTKQQNNTSQERQTEHSPEDAACGPGHICSEQNTNDREKNHGSSPEQVVRPKVRKLISSSQVDQETGFNRHEAKQRSVQRWREALEVEESGSDDLLIKCEEYDGEHDCMFLDPPYSRVITQRETENNQMTSESGATAGRQEVDNTFWNGCGDYYQLYDKDEDSSECSDGEWSASLPHRFSGTEKDQSSSDESWETLPGKDENEPELQSDSSGPEEENQELSLQEGEQTSLEEGEIPWLQYNEVNESSSDEGNEPANEFAQPAFMLDGNNNLEDDSSVSEDLDVDWSLFDGFADGLGVAEAISYVDPQFLTYMALEERLAQAMETALAHLESLAVDVEVANPPASKESIDGLPETLVLEDHTAIGQEQCCPICCSEYIKDDIATELPCHHFFHKPCVSIWLQKSGTCPVCRRHFPPAVIEASAAPSSEPDPDAPPSNDSIAEAP
B3: ZBTB10 (protein, UniProt Q96DT7 1-871)
chain: MSFSEMNRRTLAFRGGGLVTASGGGSTNNNAGGEASAWPPQPQPRQPPPPAPPALQPPNGRGADEEVELEGLEPQDLEASAGPAAGAAEEAKELLLPQDAGGPTSLGGGAGGPLLAERNRRTLAFRGGGGGGLGNNGSSRGRPETSVWPLRHFNGRGPATVDLELDALEGKELMQDGASLSDSTEDEEEGASLGDGSGAEGGSCSSSRRSGGDGGDEVEGSGVGAGEGETVQHFPLARPKSLMQKLQCSFQTSWLKDFPWLRYSKDTGLMSCGWCQKTPADGGSVDLPPVGHDELSRGTRNYKKTLLLRHHVSTEHKLHEANAQESEIPSEEGYCDFNSRPNENSYCYQLLRQLNEQRKKGILCDVSIVVSGKIFKAHKNILVAGSRFFKTLYCFSNKESPNQNNTTHLDIAAVQGFSVILDFLYSGNLVLTSQNAIEVMTVASYLQMSEVVQTCRNFIKDALNISIKSEAPESVVVDYNNRKPVNRDGLSSSRDQKIASFWATRNLTNLASNVKIENDGCNVDEGQIENYQMNDSSWVQDGSPEMAENESEGQTKVFIWNNMGSQGIQETGKTRRKNQTTKRFIYNIPPNNETNLEDCSVMQPPVAYPEENTLLIKEEPDLDGALLSGPDGDRNVNANLLAEAGTSQDGGDAGTSHDFKYGLMPGPSNDFKYGLIPGTSNDFKYGLIPGASNDFKYGLLPESWPKQETWENGESSLIMNKLKCPHCSYVAKYRRTLKRHLLIHTGVRSFSCDICGKLFTRREHVKRHSLVHKKDKKYKCMVCKKIFMLAASVGIRHGSRRYGVCVDCADKSQPGGQEGVDQGQDTEFPRDEEYEENEVGEADEELVDDGEDQNDPSRWDESGEVCMSLDD
B4: PPM1G (protein, UniProt O15355 1-546)
chain: MGAYLSQPNTVKCSGDGVGAPRLPLPYGFSAMQGWRVSMEDAHNCIPELDSETAMFSVYDGHGGEEVALYCAKYLPDIIKDQKAYKEGKLQKALEDAFLAIDAKLTTEEVIKELAQIAGRPTEDEDEKEKVADEDDVDNEEAALLHEEATMTIEELLTRYGQNCHKGPPHSKSGGGTGEEPGSQGLNGEAGPEDSTRETPSQENGPTAKAYTGFSSNSERGTEAGQVGEPGIPTGEAGPSCSSASDKLPRVAKSKFFEDSEDESDEAEEEEEDSEECSEEEDGYSSEEAENEEDEDDTEEAEEDDEEEEEEMMVPGMEGKEEPGSDSGTTAVVALIRGKQLIVANAGDSRCVVSEAGKALDMSYDHKPEDEVELARIKNAGGKVTMDGRVNGGLNLSRAIGDHFYKRNKNLPPEEQMISALPDIKVLTLTDDHEFMVIACDGIWNVMSSQEVVDFIQSKISQRDENGELRLLSSIVEELLDQCLAPDTSGDGTGCDNMTCIIICFKPRNTAELQPESGKRKLEEVLSTEGAEENGNSDKKKKAKRD
B5: SgK396 (protein, UniProt Q9BXU1 1-1019)
chain: MWVQGHSSRASATESVSFSGIVQMDEDTHYDKVEDVVGSHIEDAVTFWAQSINRNKDIMKIGCSLSEVCPQASSVLGNLDPNKIYGGLFSEDQCWYRCKVLKIISVEKCLVRYIDYGNTEILNRSDIVEIPLELQFSSVAKKYKLWGLHIPSDQEVTQFDQGTTFLGSLIFEKEIKMRIKATSEDGTVIAQAEYGSVDIGEEVLKKGFAEKCRLASRTDICEEKKLDPGQLVLRNLKSPIPLWGHRSNQSTFSRPKGHLSEKMTLDLKDENDAGNLITFPKESLAVGDFNLGSNVSLEKIKQDQKLIEENEKLKTEKDALLESYKALELKVEQIAQELQQEKAAAVDLTNHLEYTLKTYIDTRMKNLAAKMEILKEMRHVDISVRFGKDLSDAIQVLDEGCFTTPASLNGLEIIWAEYSLAQENIKTCEYVSEGNILIAQRNEMQQKLYMSVEDFILEVDESSLNKRLKTLQDLSVSLEAVYGQAKEGANSDEILKKFYDWKCDKREEFTSVRSETDASLHRLVAWFQRTLKVFDLSVEGSLISEDAMDNIDEILEKTESSVCKELEIALVDQGDADKEIISNTYSQVLQKIHSEERLIATVQAKYKDSIEFKKQLIEYLNKSPSVDHLLSIKKTLKSLKALLRWKLVEKSNLEESDDPDGSQIEKIKEEITQLRNNVFQEIYHEREEYEMLTSLAQKWFPELPLLHPEIGLLKYMNSGGLLTMSLERDLLDAEPMKELSSKRPLVRSEVNGQIILLKGYSVDVDTEAKVIERAATYHRAWREAEGDSGLLPLIFLFLCKSDPMAYLMVPYYPRANLNAVQANMPLNSEETLKVMKGVAQGLHTLHKADIIHGSLHQNNVFALNREQGIVGDFDFTKSVSQRASVNMMVGDLSLMSPELKMGKPASPGSDLYAYGCLLLWLSVQNQEFEINKDGIPKVDQFHLDDKVKSLLCSLICYRSSMTAEQVLNAECFLMPKEQSVPNPEKDTEYTLYKKEEEIKTENLDKCMEKTRNGEANFDC

Molecular target: 3×Flag‐tagged Fbxl17 (F‐box and leucine‐rich repeat protein 17) (human) (UniProt Q9UF56)
Assay: affinity purification with mass spectrometry; 3×Flag‐tagged (Flag/Myc‐tagged) Fbxl17 immunoprecipitated from HEK293T cells, eluted with Flag peptide, LC‐MS/MS; summary of four independent experiments, filtered against 8 analyses of unrelated F‐box proteins

binding, binds:
KIAA1671 (from UniProt Q9BY89 1-1806)
Skp1 (S‐phase kinase‐associated protein 1) (from UniProt P63208 1-163)
DSH homolog 2 (from UniProt O14641 1-736)
Notch 2 (from UniProt Q04721 26-2471)
B1
B2
B3
B4
B5
